Assay results: PMC10163288
This is one part of the list.

B1: il2ra_site1_1z92_normal_mot_9b3351f2f66fbcc824ad33b4da01f8ef_0001_af2_000000012_0001_16_32_H_._HHH_b1_08171_0001_0000100006_0000001_0 (protein)
chain: SSSSSEEVLKKDLRFAVEARNPSSFRRLAELARRDLKEAGDEEALREFEEFVEELEQELGSSSSS
B2: il2ra_site1_3nfp_sap_20_mot_HHH_b2_01313_af2_000000007_0001_1_16_H_._HHH_b2_00572_0001_0000500025_0000001_0_0001_af2pred_0001_1_af2pred_swapped (protein)
chain: SSSSSSDKELIRFVIELAAKLGLSAEQSEELIKLLAQLEKRGISPEEIQEILKEYAEKLSSSSSS
B3: il2ra_site1_2b5i_normal_mot_HHH_b2_04910_000000118_0001_1_19_H_._HHH_b2_07787_0001_0000300030_0000001_0 (protein)
chain: SSSSDEESREARELFHRADELDKRGNPEEAEEVLEEALELARRAGSPQLAKMIESALRQLGSSSS
B4: il2ra_site2_3nfp_normal_mot_HHH_b2_07129_000000128_0001_19_36_H_._HHH_b1_06785_0001_0000200014_0000001_0 (protein)
chain: SSSSSVEERVEELIEQIEELIRRGDPEEARRLLREAIELAFRNRNHELFAKLADLSLLLWLSSSS
B5: il2ra_site2_3nfp_sap_19_mot_HHH_b2_08245_000000272_0001_41_55_H_._HHH_b1_00786_0001_0000100004_0000001_1_0001 (protein)
chain: SSSSSDERRRAAELATEDAKHVPDPERARLALKLALAHAAVANDEELAEEVERLLEELNSSSSSS
B6: il2ra_site2_3nfp_normal_mot_HHH_b2_04230_000000235_0001_39_52_H_._HHH_b2_01503_0001_0000100002_0000001_0 (protein)
chain: SSSSSEEVEKLLEEARELLEKGNPEEARKVLSRAAHLAYQLGNAELYFAVAELAHKVYQHSSSSS
B7: il2ra_site1_3nfp_normal_mot_1cd86ef9f1587ae5d14d35bbbd8e7f1d_0001_1_000000087_0001_34_49_H_._HHH_b2_02475_af2_0001_0000500017_0000001_0_af2pred_0001_1_af2pred_s … (protein)
chain: SSSDEESEELLEEAKEILQRLLEEGDYQEASKAAEELLRQLRELGDHEASEELLEFAKRVSSSSS
B8: il2ra_site1_2b5i_normal_mot_HHH_b2_04910_000000118_0001_1_19_H_._HHH_b1_07304_0001_0000400039_0000001_0_af2pred_0001_af2pred (protein)
chain: SSSSTDVARRLFELIERANRLFRNGNPEEAEQALEEAEELAEENNNKNALRSIRIMLEQIRSSSS
B9: il2ra_site2_3nfp_normal_mot_HHH_b1_06589_000000230_0001_37_50_H_._HHH_b2_04755_0001_0000600040_0000001_0 (protein)
chain: SSSSDLEEEVEELLERAKKLYEEGNPEEVRELLAEATHLAYENRNSELYMLVAEVAFELRGSSSS
B10: il2ra_site2_2erj_normal_mot_6ec3e94b46d95805cdcdc10c0c108f03_0001_af2_000000040_0001_36_50_H_._HHH_b1_06878_af2_0001_0000200008_0000001_0 (protein)
chain: SSSSSEWLRRLYELANRALHLHANGNPEEAREVLEEARELAEELNSESVRELVEELLRLLSSSSS
B11: il2ra_site2_3nfp_normal_mot_HHH_b1_02676_000000052_0001_38_56_H_._HHH_b2_02278_0001_0000200033_0000001_1 (protein)
chain: SSSSNEEELLEILLELAELLLQRASEEEREELEELIEELKEKGDPRVAHRLYELVARIYLSSSSS
B12: il2ra_site2_3nfp_normal_mot_HHH_b2_05281_000000198_0001_39_56_H_._HHH_b1_03596_0001_0000100006_0000001_0 (protein)
chain: SSSSDEEVEELIREAEELIREGNPEEAKKVLQEATHLAYELRDPRLFFLLAELAYLLEQLSSSSS
B13: il2ra_site2_2erj_sap_27_mot_HHH_b1_04373_af2_000000118_0001_18_33_H_._HHH_b2_03131_0001_0000800063_0000001_0_0001 (protein)
chain: SLEERVEEVAEKLGLPPEVIRKIEELLEELRKEGLPPEEILSILFEEAYEEGDLEVAAVVIDLVQ
B14: il2ra_site1_3nfp_normal_mot_HHH_b1_06045_af2_000000189_0001_3_17_H_._HHH_b1_06127_0001_0000100001_0000001_0_af2pred_0001_af2pred_1 (protein)
chain: SSSSDEESERVLEEAEKLIERLLEEGDPHEAAKVAEEYLRILAELGDPEAKERLLRFALKLSSSS
B15: il2ra_site2_3nfp_normal_mot_HHH_b2_01155_000000159_0001_38_52_H_._HHH_b2_04755_af2_0001_0000100004_0000001_0 (protein)
chain: SSSSDLEERVQELLEEAERLYEEGNPEEVRELLAEATRLAFENRDSRLFMLVAEVAYELYGSSSS
B16: il2ra_site2_3nfp_sap_18_mot_HHH_b1_05437_000000005_0001_40_57_H_._HHH_b1_02393_0001_0000100001_0000001_0_0001_af2pred_0001_af2pred (protein)
chain: SSSSSSEEEKEVEELIEEARKIEDPEEAEEVLHRAATIARELNDTELAQRIAELILKVGSSSSSS
B17: il2ra_site1_3nfp_normal_mot_2d25717a5c0121ea846597d88a9db610_0001_1_af2_000000202_0001_15_29_H_._HHH_b1_01499_0001_0000400042_0000001_1 (protein)
chain: SSSSSSDEDRRIFELLKEANKITDPEEIRELLEEMLELAEERGNEKLFQELRKALEFYSSSSSSS
B18: il2ra_site1_3nfp_sap_17_mot_HHH_b2_05589_af2_000000060_0001_42_57_H_._HHH_b1_07126_af2_0001_0001100021_0000001_1_0001 (protein)
chain: SSSSDEAREAAELVAELAKKKGDWEAAQAWWEVAHRLAKGELSREEAAEILEELAERLKSSSSSS
B19: il2ra_site1_1z92_normal_mot_00a0fa73c9dbd8f1f8571bd9de0225d9_0001_af2_000000011_0001_1_12_H_._ems_ferrM_5132_0002_af2_0001_0000100002_0000001_0_af2pred_0001_af2 … (protein)
chain: SPEYTVEIHGANPEAVRRFAEALGAEVEENGETLTIEVDDPKKAELISKLAEAARVEFELEKSES
B20: il2ra_site1_1z92_sap_15_mot_HHH_b2_01902_af2_000000252_0001_25_40_H_._HHH_b1_08269_0001_0000100004_0000001_1_0001 (protein)
chain: SSSSSRTKEWLKELAESLFRSYRAKGDPKIRELLEFLLRQARLLGNEEAEELIEKLLEELSSSSS
B21: il2ra_site2_2erj_sap_15_mot_HHH_b1_04373_af2_000000118_0001_18_33_H_._df72e6d168b63c4d22c4171a8daa05df_0001_0001_0000300026_0000001_0_0001 (protein)
chain: SSSSSEELRELYELANELMRAVEEGDEEKVEEIFREIEELARRAQSDNAAEIAEHLLRLFNSSSS
B22: il2ra_site1_3nfp_normal_mot_HHH_b2_02159_000000237_0001_1_17_H_._HHH_b2_04693_af2_0001_0000200006_0000001_0_af2pred_0001_af2pred_1 (protein)
chain: SSSSSYAEELVKRAEEIAKELGDEELLRELQELLERAKKEGDPRVFEELVRLAARILLRNRSSSS
B23: il2ra_site2_3nfp_sap_18_mot_HHH_b1_04324_000000249_0001_1_20_H_._HHH_b2_02946_0001_0000200024_0000001_0_0001 (protein)
chain: SDWEEIFQLVARIVALAYERNDHEAFARATELLEKALEAANKNDEEALKEIEEEVRKVLEELESS
B24: il2ra_site2_2erj_normal_mot_HHH_b1_00612_000000025_0001_42_56_H_._HHH_b2_03934_0001_0000600010_0000001_0 (protein)
chain: SSSSDKELWEKVAEASIEALRLFKEGNPEEARELLEELLRELQELNNPDLARYVELARREASSSS
B25: il2ra_site2_3nfp_normal_mot_HHH_b1_08498_000000146_0001_21_37_H_._HHH_b1_08008_0001_0000100001_0000001_0 (protein)
chain: SSSSDEEHLEAATRLIRAAAWALNDPELERRAEELLEEIKEHGDPELKQELAELTHEAFELSSSS
B26: il2ra_site1_2b5i_sap_20_mot_HHH_b1_02657_000000080_0001_1_17_H_._78d38d65aba856c43c32fb61d368d223_0001_0001_0000200013_0000001_0_0001 (protein)
chain: SSSSDHEETREVVRIIWRLMFRFNLSAEKAQELARLAAELLDEGVSVEEIEELLRELAKRLSSSS
B27: il2ra_site1_2b5i_normal_mot_0e5a94e4a5addaac739760efb25f0f5d_0001_000000246_0001_18_32_H_._c3f6a624e0b36238ad1b06fe81c08c0c_0001_1_af2_0001_0000500026_0000001_0 … (protein)
chain: VIEKLADLAEESGDKELIKFVIRLAYEYEKTKDPKYLEQAKTLLELLEKDLEKAKAYMKELKEKK
B28: il2ra_site1_3nfp_normal_mot_HHH_b1_01231_af2_000000170_0001_1_16_H_._HHH_b1_02076_0001_0000200037_0000001_0_af2pred_0001_af2pred_1_swapped (protein)
chain: SSSSSSREELELKERVLRLLARIRDPEEARRVLEEAEELAKELGDERLLEELEKLLKRLGSSSSS
B29: il2ra_site1_2b5i_normal_mot_HHH_b2_04910_000000118_0001_1_19_H_._HHH_b2_05595_af2_0001_0000500031_0000001_1_af2pred_0001_af2pred (protein)
chain: SSSSSLTKEAFRLFEEANRLFRNGNPEEAQKLLEKAEELAEEGNNKSLVKSIRAALRLLESSSSS
B30: il2ra_site2_3nfp_normal_mot_HHH_b2_00232_000000252_0001_23_39_H_._HHH_b2_01857_0001_0000200024_0000001_0_1_af2pred_0001_af2pred (protein)
chain: SSSSSDEEEEKVEELLEEAEHIEDEEELEDILALAFLIAFEAEDPELLRLVREVSAELLQSSSSS
B31: il2ra_site2_3nfp_normal_mot_HHH_b1_03316_000000041_0001_39_56_H_._HHH_b2_03878_0001_0000300032_0000001_0 (protein)
chain: SSSSDEEERLHEEVRELIEEGDPEEAQQALARAAELAFETNDHRLWMLIIELAELLLEFERSSSS
B32: il2ra_site1_2b5i_normal_mot_3116615af0ee64d731c1c85d8523bf51_0001_000000216_0001_15_32_H_._74ae6eb07f9420050133e9940f1af965_0001_0001_0000100004_0000001_0_1_af2 … (protein)
chain: DIEARIAAAAAELGVDPKRLKALVKAAQDALDVPPEKALDLVKEALEKAGGNVRKAMELLEALLK
B33: il2ra_site1_3nfp_normal_mot_HHH_b1_01417_af2_000000204_0001_1_19_H_._HHH_b1_00894_0001_0000100002_0000001_0 (protein)
chain: SSSSNAAERFTERAEELAKELGDEELVELLRELLEEAQKKGDSRVARELIKVIAKVQLKYESSSS
B34: il2ra_site1_3nfp_sap_16_mot_HHH_b1_01335_af2_000000105_0001_39_53_H_._HHH_eva_0536_0001_0000600013_0000001_0_0001 (protein)
chain: SSSSSSEWEEAQEAARELMRLWREGDKEKAREVAEELLELAERMNDKVAERLARQYLEVLSSSSS
B35: il2ra_site2_3nfp_sap_16_mot_HHH_b2_07129_000000128_0001_19_36_H_._HHH_b1_05592_af2_0001_0000300011_0000001_0_0001_af2pred_0001_1_af2pred_swapped (protein)
chain: DTITEVIRELREEGDPELALLLFAVLAEVEALDDPELEEELEKLIELAKRDPERAKELAKELLQR
B36: il2ra_site2_3nfp_sap_19_mot_HHH_b1_03745_000000053_0001_41_56_H_._HHH_b1_03974_0001_0000100003_0000001_0_0001 (protein)
chain: SSSSDIEERLKELIEQLEELEEKNDEDELAQLLLELMELAAKNNDEEAARAVLEVYARLRSSSSS
B37: il2ra_site1_1z92_normal_mot_01209686ea234b34325f918445e6eade_0001_af2_000000154_0001_18_33_H_._HHH_b1_06503_0001_0000300032_0000001_0_af2pred_0001_af2pred_1 (protein)
chain: SSSSDEEELREFVEELVRLLGLDEKAKRALERSLELALRQGISPESIKKALEKNAELDQKSSSSS

Biological target: il2ra, P01589
Test: yeast display titration

Apparent Kd, inactive:
B1 > 1500 nM
B2 no binding seen
B3 no binding seen
B4 no binding seen
B5 no binding seen
B6 no binding seen
B7 no binding seen
B8 no binding seen
B9 no binding seen
B10 no binding seen
B11 no binding seen
B12 no binding seen
B13 no binding seen
B14 no binding seen
B15 no binding seen
B16 no binding seen
B17 no binding seen
B18 no binding seen
B19 no binding seen
B20 no binding seen
B21 no binding seen
B22 no binding seen
B23 no binding seen
B24 no binding seen
B25 no binding seen
B26 > 6.82 nM
B27 no binding seen
B28 no binding seen
B29 no binding seen
B30 no binding seen
B31 no binding seen
B32 no binding seen
B33 no binding seen
B34 no binding seen
B35 no binding seen
B36 no binding seen
B37 no binding seen

Three neighbouring entries out of the list so far:
Apparent Kd, inactive:
B33 no binding seen
B34 no binding seen
B35 no binding seen
